Where two headings read alike, the source gives them in different places. Results are given in words; binding and its absence hold for the method and conditions named. Binding seen in cells or lysates may run through a third protein. A yes stands for co-enrichment or nearness to the bait. Other partners may have been found. Sequences can lack the tags named with a protein. Each block holds one molecule with its values, some of them ahead of it.
Tests used:
[1] = target: T1, LMX1B-myc-HIS fusion protein (UniProt O88609); assay: affinity purification with mass spectrometry; IP with anti-HIS or anti-LMX1B (two separate LMX1B IPs) on lysate of MN9D cells overexpressing LMX1B-HIS (control: goat or rabbit IgG); bands cut from silver-stained SDS gels, nanoLC-ESI-MS/MS, Mascot
T1 sequence: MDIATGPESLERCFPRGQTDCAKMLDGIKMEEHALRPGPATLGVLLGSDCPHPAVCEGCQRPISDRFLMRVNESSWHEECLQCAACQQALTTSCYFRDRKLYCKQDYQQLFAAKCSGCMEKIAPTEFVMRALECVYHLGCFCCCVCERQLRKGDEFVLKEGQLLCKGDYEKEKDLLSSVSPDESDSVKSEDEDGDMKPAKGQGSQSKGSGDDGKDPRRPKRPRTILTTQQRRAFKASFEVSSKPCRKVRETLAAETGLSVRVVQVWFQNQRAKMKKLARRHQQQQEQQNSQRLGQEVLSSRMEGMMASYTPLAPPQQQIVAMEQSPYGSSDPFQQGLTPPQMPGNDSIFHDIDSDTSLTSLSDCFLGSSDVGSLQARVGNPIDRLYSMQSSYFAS

Amino acid sequences for entries named in this document (tags omitted).
UniProt P17879: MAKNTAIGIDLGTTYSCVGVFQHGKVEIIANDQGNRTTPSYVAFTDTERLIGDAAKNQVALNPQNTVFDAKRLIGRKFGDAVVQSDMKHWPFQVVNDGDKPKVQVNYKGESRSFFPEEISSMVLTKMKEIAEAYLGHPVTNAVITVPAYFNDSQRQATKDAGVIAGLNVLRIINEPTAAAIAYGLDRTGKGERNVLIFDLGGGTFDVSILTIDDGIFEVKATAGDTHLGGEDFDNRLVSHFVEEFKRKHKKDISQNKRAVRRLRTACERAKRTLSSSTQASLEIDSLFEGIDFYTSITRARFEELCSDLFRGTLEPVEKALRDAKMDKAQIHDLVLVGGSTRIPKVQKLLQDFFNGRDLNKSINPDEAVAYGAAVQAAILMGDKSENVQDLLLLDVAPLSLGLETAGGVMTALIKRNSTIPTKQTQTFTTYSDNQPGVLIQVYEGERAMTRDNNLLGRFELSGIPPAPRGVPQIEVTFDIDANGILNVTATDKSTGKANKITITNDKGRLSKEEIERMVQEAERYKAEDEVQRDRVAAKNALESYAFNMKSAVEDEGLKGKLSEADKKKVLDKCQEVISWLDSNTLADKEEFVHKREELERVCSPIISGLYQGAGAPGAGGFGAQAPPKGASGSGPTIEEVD
UniProt O70133: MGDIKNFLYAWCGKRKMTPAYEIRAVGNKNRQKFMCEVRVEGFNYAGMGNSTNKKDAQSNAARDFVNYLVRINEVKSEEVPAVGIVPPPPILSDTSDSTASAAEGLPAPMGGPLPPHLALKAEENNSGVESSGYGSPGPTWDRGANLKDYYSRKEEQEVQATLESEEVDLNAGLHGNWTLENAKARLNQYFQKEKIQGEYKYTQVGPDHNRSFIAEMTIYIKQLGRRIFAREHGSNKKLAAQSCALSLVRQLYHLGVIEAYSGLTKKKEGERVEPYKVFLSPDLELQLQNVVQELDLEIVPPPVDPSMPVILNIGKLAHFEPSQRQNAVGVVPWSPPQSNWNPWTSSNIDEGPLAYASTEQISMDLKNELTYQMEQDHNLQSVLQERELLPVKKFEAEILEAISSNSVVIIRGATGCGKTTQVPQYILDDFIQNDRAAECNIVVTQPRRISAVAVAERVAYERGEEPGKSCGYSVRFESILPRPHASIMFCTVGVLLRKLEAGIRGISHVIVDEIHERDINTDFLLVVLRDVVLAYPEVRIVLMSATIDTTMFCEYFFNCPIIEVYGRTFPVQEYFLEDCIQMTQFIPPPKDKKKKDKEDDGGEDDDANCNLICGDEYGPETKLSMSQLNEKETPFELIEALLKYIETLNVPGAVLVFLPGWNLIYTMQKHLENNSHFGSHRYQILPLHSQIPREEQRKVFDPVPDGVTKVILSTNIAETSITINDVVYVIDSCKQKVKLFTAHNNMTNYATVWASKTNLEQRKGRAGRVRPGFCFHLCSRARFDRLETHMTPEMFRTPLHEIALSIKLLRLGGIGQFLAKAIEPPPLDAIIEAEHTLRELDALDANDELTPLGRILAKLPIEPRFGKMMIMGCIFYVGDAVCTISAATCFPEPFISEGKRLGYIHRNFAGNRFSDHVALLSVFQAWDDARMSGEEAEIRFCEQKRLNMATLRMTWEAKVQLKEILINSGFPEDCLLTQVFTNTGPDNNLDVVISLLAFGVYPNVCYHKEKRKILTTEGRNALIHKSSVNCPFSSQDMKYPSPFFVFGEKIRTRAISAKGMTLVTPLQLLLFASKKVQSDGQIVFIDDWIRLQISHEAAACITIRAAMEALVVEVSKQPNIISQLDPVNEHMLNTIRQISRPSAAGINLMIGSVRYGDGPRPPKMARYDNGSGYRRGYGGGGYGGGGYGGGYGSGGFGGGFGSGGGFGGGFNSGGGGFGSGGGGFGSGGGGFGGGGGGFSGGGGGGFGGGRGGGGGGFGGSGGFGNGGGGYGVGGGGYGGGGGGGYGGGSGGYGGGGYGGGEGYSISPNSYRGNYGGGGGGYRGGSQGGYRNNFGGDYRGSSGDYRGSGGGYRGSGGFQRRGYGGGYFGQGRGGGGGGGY
UniProt Q9WTI7: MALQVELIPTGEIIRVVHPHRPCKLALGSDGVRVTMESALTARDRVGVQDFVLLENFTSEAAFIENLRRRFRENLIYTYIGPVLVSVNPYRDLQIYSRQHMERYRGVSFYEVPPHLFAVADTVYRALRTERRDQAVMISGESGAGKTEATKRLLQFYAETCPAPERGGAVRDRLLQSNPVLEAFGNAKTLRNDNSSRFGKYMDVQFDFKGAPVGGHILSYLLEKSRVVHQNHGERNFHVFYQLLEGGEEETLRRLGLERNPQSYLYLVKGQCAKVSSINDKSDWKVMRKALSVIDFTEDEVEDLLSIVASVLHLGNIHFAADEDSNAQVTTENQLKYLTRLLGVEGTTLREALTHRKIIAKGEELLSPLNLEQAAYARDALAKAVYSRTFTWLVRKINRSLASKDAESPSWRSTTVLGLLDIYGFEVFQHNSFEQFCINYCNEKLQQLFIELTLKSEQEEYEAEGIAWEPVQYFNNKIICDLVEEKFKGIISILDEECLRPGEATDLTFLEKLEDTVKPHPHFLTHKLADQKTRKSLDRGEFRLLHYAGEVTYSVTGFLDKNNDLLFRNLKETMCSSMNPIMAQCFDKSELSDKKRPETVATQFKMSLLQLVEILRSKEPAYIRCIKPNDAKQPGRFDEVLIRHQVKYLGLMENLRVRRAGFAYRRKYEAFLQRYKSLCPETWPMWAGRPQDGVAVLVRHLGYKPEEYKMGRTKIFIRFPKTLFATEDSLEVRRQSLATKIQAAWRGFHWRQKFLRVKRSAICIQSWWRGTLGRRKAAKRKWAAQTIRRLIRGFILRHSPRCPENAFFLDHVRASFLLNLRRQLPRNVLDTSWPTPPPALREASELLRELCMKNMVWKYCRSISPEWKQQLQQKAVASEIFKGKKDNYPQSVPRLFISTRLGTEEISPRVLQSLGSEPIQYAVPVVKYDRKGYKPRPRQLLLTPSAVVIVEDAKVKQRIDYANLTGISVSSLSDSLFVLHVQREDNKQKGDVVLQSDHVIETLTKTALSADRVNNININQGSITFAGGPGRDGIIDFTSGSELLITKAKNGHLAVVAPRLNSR

[2] = target: T1, LMX1B-myc-HIS fusion protein; assay: as above; remark: listed apart in the source

binding [1]: binds
Molecule: Heat shock protein 70 (from UniProt P17879 1-642)

binding [2]: binds
B2: Glucocorticoid receptor DNA-binding factor 1 (protein, UniProt Q91YM2 1-1499)
chain: MMMARKQDVRIPTYNISVVGLSGTEKEKGQCGIGKSCLCNRFVRPSADEFHLDHTSVLSTSDFGGRVVNNDHFLYWGEVSRSLEDCVECKMHIVEQTEFIDDQTFQPHRSTALQPYIKRAAATKLASAEKLMYFCTDQLGLEQDFEQKQMPDGKLLVDGFLLGIDVSRGMNRNFDDQLKFVSNLYNQLAKTKKPIVVVLTKCDEGVERYIRDAHTFALSKKNLQVVETSARSNVNVDLAFSTLVQLIDKSRGKTKIIPYFEALKQQSQQIATAKDKYEWLVSRIVKNHNENWPSVSRKMQASPEYQDYVYLEGTQKAKKLFLQHIHRLKHEHIERRRKLYLAALPLAFEALIPNLDEVDHLSCIKAKKLLETKPEFLKWFVVLEETPWDATSHIDNMENERIPFDLMDTVPAEQLYETHLEKLRNERKRAEMRRAFKENLETSPFITPGKPWEEARSFIMNEDFYQWLEESVYMDIYGKHQKQIIDRAKEEFQELLLEYSELFYELELDAKPSKEKMGVIQDVLGEEQRFKALQKLQAERDALILKHIHFVYHPTKETCPSCPACVDAKIEHLISSRFIRPSDRNQKNSLSDLNIDRINLVILGKDGLARELANEIRALCTNDDKYVIDGKMYELSLRPIEGNVRLPVNSFQTPTFQPHGCLCLYNSKESLSYVVESIEKSRESTLGRRDNHLVHLPLTLILVNKRGDTSGETLHSLIQQGQQIASKLQCVFLDPASAGIGYGRNINEKQISQVLKGLLDSKRNLNLVSSTASIKDLADVDLRIVMCLMCGDPFSADDVLSPVLQSQTCKSSHCGSSNSVLLELPIGLHKKRIELSVLSYHSSFSIRKSRLVHGYIVFYSAKRKASLAMLRAFLCEVQDIIPIQLVALTDGAIDVLDNDLSREQLTEGEEIAQEIDGRFTSIPCSQPQHKLELFHPFFKDVVEKKNIIEATHMYDNVAEACSTTEEVFNSPRAGSPLCNSNLQDSEEDVEPPSYHLFREDATLPSLSKDHSKFSMELEGNDGLSFIMSNFESKLNNKVPPPVKPKPPVHFDITKDLSYLDQGHREGQRKSMSSSPWMPQDGFDPSDYAEPMDAVVKPRNEEENIYSVPHDSTQGKIITIRNINKAQSNGSGNGSDSEMDTSSLERGRKVSAVSKPVLYRTRCTRLGRFASYRTSFSVGSDDELGPIRKKEEDQASQGYKGDNAVIPYETDEDPRRRNILRSLRRNTKKPKPKPRPSITKATWESNYFGVPLTTVVTPEKPIPIFIERCIEYIEATGLSTEGIYRVSGNKSEMESLQRQFDQDHNLDLAEKDFTVNTVAGAMKSFFSELPDPLVPYSMQIDLVEAHKINDREQKLHALKEVLKKFPKENHEVFKYVISHLNKVSHNNKVNLMTSENLSICFWPTLMRPDFSSMDALTATRSYQTIIELFIQQCPFFFYNRPISEPPGAAPGSPSAMAPTVPFLTSTPATSQPSPPQSPPPTPQSPMQPLLSSQLQAEHTL

The remaining lines, values behind:

Molecule: DEAH (Asp-Glu-Ala-His) box polypeptide 9 (from UniProt O70133 1-1380)
binding [1]: binds

Molecule: Myosin 1c (from UniProt Q9WTI7 1-1063)
binding [1]: binds

B1: Lamina-associated polypeptide 2, isoforms alpha/zeta (protein, UniProt Q61033 1-693)
chain: MPEFLEDPSVLTKDKLKSELVANNVTLPAGEQRKDVYVQLYLQHLTARNRPPLAAGANSKGPPDFSSDEEREPTPVLGSGASVGRGRGAVGRKATKKTDKPRLEDKDDLDVTELSNEELLDQLVRYGVNPGPIVGTTRKLYEKKLLKLREQGTESRSSTPLPTVSSSAENTRQNGSNDSDRYSDNDEGKKKEHKKVKSARDCVPFSELASTPSGAFFQGISFPEISTRPPLGRTELQAAKKVQTTKRDPPRETCTDTALPGKGQTHKLAPGRSLFIPSESSYDRCVEKSSSPSSQREFAARLVSAAASPSLIRETTTTYSKDIVENICRGGKSRAQPLRAEEPGVSDQSVFSSEREVLQESERSQVISPPLAQAIRDYVNSLLVQGGVGSLPGTSDSVPTLDVENICKRLSQSSYQDSESLSPPRKVPRLSEKPARGGDSGSCVAFQNTPGSEHRSSFAKSVVSHSLTTLGVEVSKPPPQHDKIEASEPSFPLHESILKVVEEEWQQIDRQLPSVACRYPVSSIEAARILSVPKVDDEILGFISEATPRAATQASSTESCDKHLDLALCRSYEAAASALQIAAHTAFVAKSLQADISQAAQIINSDPSDAQQALRILNRTYDAASYLCDAAFDEVRMSACAMGSSTMGRRYLWLKDCKISPASKNKLTVAPFKGGTLFGGEVHKVIKKRGNKQ
binding [2]: binds

Reference: publication PMC3537735
